Experimental data from patent US20060147420A1 (University of Texas, published 2006).
No constants are given. Whether binding was seen depends on the method and setting. Some entries that bind do so weakly or less than the wild type.

Amino acid sequences for entries named in this document (tags omitted). Residues count along the entry.
UniProt Q02763, residues 23-1124: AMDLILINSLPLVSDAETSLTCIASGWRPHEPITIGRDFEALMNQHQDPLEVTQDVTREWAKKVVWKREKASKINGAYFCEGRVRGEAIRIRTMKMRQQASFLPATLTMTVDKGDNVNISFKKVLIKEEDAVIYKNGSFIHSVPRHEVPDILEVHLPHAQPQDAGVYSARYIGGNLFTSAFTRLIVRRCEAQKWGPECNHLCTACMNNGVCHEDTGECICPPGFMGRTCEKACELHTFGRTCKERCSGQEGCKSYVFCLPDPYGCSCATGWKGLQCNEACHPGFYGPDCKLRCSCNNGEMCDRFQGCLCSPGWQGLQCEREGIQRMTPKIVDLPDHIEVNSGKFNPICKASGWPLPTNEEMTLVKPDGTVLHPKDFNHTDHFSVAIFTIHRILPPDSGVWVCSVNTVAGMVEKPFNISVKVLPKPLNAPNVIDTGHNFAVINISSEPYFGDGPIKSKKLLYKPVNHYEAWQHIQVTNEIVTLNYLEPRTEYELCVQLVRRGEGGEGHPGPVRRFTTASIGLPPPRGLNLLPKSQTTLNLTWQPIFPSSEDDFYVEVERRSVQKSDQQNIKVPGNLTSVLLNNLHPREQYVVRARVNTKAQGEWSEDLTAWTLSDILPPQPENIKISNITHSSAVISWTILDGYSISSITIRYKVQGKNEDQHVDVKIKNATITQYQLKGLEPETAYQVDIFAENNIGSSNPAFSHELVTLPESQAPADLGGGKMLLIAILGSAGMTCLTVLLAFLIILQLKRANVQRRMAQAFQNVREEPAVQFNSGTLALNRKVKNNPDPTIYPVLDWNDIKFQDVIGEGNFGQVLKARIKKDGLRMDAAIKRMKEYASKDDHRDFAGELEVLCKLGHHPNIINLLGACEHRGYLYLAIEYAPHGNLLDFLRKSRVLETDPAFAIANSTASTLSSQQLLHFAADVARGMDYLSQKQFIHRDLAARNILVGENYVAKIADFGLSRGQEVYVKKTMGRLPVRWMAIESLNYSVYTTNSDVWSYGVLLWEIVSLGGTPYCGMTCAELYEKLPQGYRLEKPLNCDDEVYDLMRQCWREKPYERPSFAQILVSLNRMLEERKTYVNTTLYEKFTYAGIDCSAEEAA

Experiments:
Dok-R protein [1] = molecular target: T1, Dok-R protein (UniProt O60496); experiment: restatement of the inventors' finding in glioma cells
T1 sequence (looked up): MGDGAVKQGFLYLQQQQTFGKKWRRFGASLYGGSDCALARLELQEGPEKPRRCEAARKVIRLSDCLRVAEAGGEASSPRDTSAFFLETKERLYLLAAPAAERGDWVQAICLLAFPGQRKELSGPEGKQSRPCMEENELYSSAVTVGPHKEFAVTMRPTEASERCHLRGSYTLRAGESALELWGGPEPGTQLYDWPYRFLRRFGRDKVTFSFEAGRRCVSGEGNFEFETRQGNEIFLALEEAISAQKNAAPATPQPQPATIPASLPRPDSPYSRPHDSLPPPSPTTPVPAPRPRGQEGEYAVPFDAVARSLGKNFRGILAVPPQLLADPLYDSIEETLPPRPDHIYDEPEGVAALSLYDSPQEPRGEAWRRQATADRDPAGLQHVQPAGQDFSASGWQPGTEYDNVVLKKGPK

Dok-R protein [2] = molecular target: T1, Dok-R protein; experiment: association in stably transfected Tie2-U-251 MG cells after Ang1 stimulation (method not detailed)

binding (Dok-R protein [1]): binds
binding (Dok-R protein [2]): binds
Substance: Tie2 receptor (on or in glioma and endothelial cells) (from UniProt Q02763 23-1124)
